Results are given in words; binding and its absence hold for the method and conditions named. For some assays here: A result given as binding can be weak or reduced; the word gives no strength.
Columns and labels:
[1] = biological target: SNX17ΔC (residue 1-390) with an intramolecular decaHis tag (human) (UniProt Q15036); assay: ITC; Microcal PEAQ, 10 °C, 500 mM NaCl, 100 mM Tris pH 8.0, 5% glycerol; 250 µM APP or LRP1 peptide, or 2 mM SNX17 tail peptide, injected into 20 µM SNX17 FL or SNX17ΔC; single site binding model; both purified
[2] = biological target: SNX17ΔC (residue 1-390) with an intramolecular decaHis tag (human) (UniProt Q15036); assay: condition: only SNX17ΔC saturated with LRP1 peptide (from a previous ITC run); ITC; 2 mM SNX17 tail peptide injected into 20 μM SNX17ΔC saturated with LRP1 peptide (from a previous ITC run); 10 °C; 500 mM NaCl, 100 mM Tris pH 8.0, 5% glycerol; both purified
[3] = biological target: SNX17ΔC (residue 1-390) with an intramolecular decaHis tag (human) (UniProt Q15036); assay: condition: only SNX17ΔC pre-incubated (saturated) with the LRP1 peptide; 2 mM tail peptide into 20 µM SNX17ΔC; ITC; as a4, but 2 mM SNX17 tail peptide injected into 20 µM SNX17ΔC saturated with LRP1 peptide (from a previous ITC run); both purified

The chains behind the UniProt entries cited, without tags or fusion partners. Where a name states a change or a piece, a line headed by the entry shows the natural chain unless it says otherwise.
UniProt Q15036: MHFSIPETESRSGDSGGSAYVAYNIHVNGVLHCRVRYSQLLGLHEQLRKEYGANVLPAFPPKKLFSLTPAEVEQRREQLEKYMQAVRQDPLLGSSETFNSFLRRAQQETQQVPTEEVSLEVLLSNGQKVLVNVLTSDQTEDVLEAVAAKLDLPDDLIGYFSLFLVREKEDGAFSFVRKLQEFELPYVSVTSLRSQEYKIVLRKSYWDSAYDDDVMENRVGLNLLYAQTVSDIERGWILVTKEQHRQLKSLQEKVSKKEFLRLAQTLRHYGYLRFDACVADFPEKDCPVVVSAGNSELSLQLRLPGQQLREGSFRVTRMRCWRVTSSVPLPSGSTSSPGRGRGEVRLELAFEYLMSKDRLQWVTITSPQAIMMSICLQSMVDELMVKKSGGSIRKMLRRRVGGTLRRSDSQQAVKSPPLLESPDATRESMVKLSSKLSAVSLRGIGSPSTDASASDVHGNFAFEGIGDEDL

binding [1]	binding [2]	binding [3]	Binder
binds	–	–	VEIGNPTYKMYEGG [LRP1 cargo recognition peptide (4466-4479)]
–	no binding	–	SASDVHGNFAFEGIGDEDL (peptide, UniProt Q15036 452-470) [SNX17 tail synthetic peptide (452-470)]
binds	–	–	NGYENPTYKFFEQM [APP cargo recognition peptide (755-768)]
binds weakly	–	no binding	SASDVHGNFAFEGIGDEDL [synthetic peptide of the SNX17 tail (452-470)]

From publication PMC11339278 (2024)
